According to PMC9527118:
No constants are given. Whether binding was seen depends on the method and setting. Binding seen in cells or lysates may run through a third protein. Some binding calls cover weakened binding; strength is not graded here.

The chains behind the UniProt entries cited, without tags or fusion partners.
UniProt Q9Y2H9: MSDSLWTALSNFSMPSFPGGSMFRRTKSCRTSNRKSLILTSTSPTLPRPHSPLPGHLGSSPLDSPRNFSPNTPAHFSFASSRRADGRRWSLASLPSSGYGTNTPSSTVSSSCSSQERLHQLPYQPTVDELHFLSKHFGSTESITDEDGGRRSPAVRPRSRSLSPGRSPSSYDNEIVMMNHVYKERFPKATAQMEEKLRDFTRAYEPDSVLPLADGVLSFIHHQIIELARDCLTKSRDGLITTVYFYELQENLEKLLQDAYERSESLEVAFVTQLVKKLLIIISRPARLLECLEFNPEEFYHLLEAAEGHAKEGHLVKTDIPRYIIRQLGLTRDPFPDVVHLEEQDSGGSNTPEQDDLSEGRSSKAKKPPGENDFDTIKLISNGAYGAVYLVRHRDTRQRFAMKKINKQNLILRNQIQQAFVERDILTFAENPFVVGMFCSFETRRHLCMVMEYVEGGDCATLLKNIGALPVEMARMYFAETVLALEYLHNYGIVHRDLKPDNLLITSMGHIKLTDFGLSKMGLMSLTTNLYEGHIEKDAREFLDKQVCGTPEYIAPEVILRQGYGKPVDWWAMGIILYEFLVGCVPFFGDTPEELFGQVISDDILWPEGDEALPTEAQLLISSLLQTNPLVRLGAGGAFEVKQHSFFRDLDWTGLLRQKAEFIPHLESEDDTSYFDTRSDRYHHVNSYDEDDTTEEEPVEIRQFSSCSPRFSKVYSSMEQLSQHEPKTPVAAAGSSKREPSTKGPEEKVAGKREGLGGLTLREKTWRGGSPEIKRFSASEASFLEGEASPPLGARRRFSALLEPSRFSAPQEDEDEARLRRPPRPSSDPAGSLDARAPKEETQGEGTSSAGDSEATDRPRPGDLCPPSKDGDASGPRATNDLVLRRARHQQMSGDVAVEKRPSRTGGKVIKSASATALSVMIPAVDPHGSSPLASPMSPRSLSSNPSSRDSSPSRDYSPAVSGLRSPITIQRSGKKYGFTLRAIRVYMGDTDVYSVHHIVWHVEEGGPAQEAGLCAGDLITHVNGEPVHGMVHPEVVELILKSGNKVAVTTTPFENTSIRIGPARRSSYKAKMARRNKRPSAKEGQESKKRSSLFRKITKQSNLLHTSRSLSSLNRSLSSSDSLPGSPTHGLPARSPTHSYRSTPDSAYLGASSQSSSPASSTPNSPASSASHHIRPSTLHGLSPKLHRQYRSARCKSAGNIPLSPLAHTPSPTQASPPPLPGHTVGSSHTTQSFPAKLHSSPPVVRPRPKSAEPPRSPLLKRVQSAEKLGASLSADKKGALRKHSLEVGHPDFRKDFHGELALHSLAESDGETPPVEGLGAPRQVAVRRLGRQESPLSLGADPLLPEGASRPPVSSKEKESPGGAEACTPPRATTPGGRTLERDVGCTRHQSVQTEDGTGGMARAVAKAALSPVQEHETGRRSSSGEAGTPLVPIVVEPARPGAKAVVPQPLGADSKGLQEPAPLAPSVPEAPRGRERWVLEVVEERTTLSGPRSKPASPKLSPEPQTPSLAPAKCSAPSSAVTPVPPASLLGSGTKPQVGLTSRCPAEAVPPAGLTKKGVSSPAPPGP
UniProt P08238: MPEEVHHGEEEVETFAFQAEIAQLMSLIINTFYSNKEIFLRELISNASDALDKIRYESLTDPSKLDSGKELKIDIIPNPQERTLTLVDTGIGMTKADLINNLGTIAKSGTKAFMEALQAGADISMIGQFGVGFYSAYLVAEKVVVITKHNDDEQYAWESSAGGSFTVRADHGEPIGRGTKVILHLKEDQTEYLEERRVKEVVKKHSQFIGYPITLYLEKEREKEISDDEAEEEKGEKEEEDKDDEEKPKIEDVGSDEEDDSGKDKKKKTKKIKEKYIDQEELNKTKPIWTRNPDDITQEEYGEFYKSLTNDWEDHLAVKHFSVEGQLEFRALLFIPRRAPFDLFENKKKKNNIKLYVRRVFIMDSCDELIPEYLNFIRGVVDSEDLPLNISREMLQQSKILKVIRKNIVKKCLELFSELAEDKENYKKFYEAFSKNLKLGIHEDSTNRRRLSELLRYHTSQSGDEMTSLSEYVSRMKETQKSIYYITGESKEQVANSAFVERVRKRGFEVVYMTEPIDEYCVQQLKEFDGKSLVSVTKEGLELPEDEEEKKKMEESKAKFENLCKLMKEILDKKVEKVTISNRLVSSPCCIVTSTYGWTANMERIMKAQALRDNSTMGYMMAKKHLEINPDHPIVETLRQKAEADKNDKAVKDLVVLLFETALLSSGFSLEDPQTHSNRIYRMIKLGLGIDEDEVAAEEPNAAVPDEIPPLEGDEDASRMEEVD
UniProt Q9UNE7: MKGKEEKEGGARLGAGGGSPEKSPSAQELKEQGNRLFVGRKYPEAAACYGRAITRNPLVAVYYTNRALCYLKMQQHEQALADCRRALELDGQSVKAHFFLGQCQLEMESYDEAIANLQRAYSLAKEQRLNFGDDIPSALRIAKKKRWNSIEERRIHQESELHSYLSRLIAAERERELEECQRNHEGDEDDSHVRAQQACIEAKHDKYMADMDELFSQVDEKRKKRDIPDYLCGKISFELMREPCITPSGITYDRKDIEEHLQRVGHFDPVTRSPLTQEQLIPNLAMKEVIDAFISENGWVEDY

Biological target: microtubule-associated serine/threonine kinase 1 (MAST1) (human (endogenous in A549)) (UniProt Q9Y2H9)
Experiment: co-IP; cell lysates (IP lysis buffer) incubated overnight at 4°C with anti-MAST1 (sc-373845), IgG as negative control, Protein A/G beads 2 h at 4°C; Western blot for Hsp90β, MAST1, CHIP and ubiquitin; CD133- and CD133+ A549 cells (Fig. 4e) and sorted A549 cells transduced with vector, oe-CHIP or oe-CHIP+oe-Hsp90β (Fig. 4g)

Row | binding | Substance
1 | binds | heat-shock protein 90 beta (Hsp90β) (from UniProt P08238 1-724)
2 | binds | carboxyl terminal of Hsp70-interacting protein (CHIP), E3 ubiquitin ligase (from UniProt Q9UNE7 1-303) (enzyme)
